## Primary screen of a compound library

Amino acid sequences for entries named in this document (tags omitted).
UniProt E9BF75, entry or part of it: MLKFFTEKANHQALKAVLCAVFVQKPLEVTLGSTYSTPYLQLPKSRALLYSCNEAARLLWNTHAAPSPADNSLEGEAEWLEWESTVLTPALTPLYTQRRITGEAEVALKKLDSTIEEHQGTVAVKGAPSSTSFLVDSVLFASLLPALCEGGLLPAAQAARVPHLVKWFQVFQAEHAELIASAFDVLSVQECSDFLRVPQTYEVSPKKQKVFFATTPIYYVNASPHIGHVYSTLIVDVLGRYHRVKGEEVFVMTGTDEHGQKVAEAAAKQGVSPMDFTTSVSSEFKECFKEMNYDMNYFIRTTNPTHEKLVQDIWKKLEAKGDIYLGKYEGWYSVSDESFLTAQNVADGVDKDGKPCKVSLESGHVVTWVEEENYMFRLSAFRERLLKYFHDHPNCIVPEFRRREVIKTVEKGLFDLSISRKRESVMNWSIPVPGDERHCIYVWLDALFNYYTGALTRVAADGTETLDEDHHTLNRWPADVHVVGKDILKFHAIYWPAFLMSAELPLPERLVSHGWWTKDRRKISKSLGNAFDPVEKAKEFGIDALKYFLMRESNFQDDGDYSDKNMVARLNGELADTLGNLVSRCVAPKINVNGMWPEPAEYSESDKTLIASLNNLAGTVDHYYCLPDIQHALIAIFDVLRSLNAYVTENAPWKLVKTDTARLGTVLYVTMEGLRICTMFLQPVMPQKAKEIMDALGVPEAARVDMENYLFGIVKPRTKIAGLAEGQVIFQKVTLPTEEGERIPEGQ

From ChEMBL document CHEMBL3988442, “University of Dundee, Small-Polar-MMV Screening Library” (2021).

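Methionyl-tRNA synthetase (putative), Leishmania donovani (UniProt E9BF75). Primary screen of methionyl-tRNA synthetase; the read-out is not stated. The test concentration is not given. Values are per cent inhibition. About 68,000 compounds were tested under these conditions; 0.035% (about 24) showed 50% or more at least once.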

Results are percentages, as filed.
How 0% and 100% were set is not recorded. Most values in the screen are low, and negative values occur.
This is an unselected part of the compounds tested.

SMILES	Inhibition
CCN1CCOCC12CCN(c1cnccn1)CC2	7.273%
CCS(=O)(=O)N1CCC2(CCC2NC(=O)c2ccn(C)c2)CC1 (stereo unspecified)	18.52%
CCOc1ccccc1-c1noc(CN(C)Cc2cnn(C)c2)n1	3.986%
CCN1C(=O)CCC12CCCN(S(=O)(=O)c1cccc(C)c1)CC2 (stereo unspecified)	5%
CC(=O)N1CC[C@H]2NC(=O)N(Cc3ccccc3)C(=O)[C@H]21	5.495%
CN(Cc1ccc2c(c1)OCO2)Cc1nc2c(cnn2C)c(=O)[nH]1	7.874%
CCc1[nH]c2c(CNc3nccc(N)n3)cc(F)cc2c1C	18.93%
CCc1nc(C2CCCN2Cc2nccn2CC(F)(F)F)no1 (stereo unspecified)	9.036%
CN(C)c1ccc(CN2CCN(c3ccc(C#N)cc3)C(=O)C2)cn1	6.272%
CSc1c[nH]nc1NS(=O)(=O)c1cc(F)ccc1C	6.593%
Cc1ccc(C(=O)N(C)Cc2nccn2CC(F)(F)F)cn1	11.26%
CN1CCN(C(=O)c2ncn3c2CN(C)S(=O)(=O)c2ccccc2-3)CC1	21.47%
Cc1ccccc1C(=O)N1C[C@@H]2[C@@H](CN(C)CCc3ccccn3)[C@@H]2C1	19.22%
COCc1nc(C(=O)NS(=O)(=O)c2ccc(Cl)cc2F)cs1	9.227%
CC(=O)NCC1CCN(c2cc(C)nc(-c3ccncc3)n2)CC1	22.95%
Cc1nc(C)n(CC2CCCCN2CCCC#N)n1 (stereo unspecified)	7.692%
CNS(=O)(=O)c1cccc(C(C)NCc2ccccc2OC)c1 (stereo unspecified)	3.297%
COc1cc(F)ccc1C(C(=O)O)N(C)CCN1CCOCC1 (stereo unspecified)	8.741%
COCCNC(=O)NC1CCN(c2cnn(C)c2)C1 (stereo unspecified)	3.249%
CNC(=O)CSC(C)c1ccc(Br)cc1 (stereo unspecified)	8.424%
Cc1nc(C(=O)N2CCN(c3ccc(Cl)c(Cl)c3)CC2)cs1	17.49%
COc1c(CNCCNC(=O)c2cccc(C)c2)c(C)nn1C	11.73%
O=C(NC1CCC(O)CC1)c1cnc2c(cnn2C2CCCC2)c1 (stereo unspecified)	10.14%
Cc1nc(CN2CC3(CCN(c4cnccn4)C3)CC2=O)cs1 (stereo unspecified)	8.357%
c1ccc(CN2CCN(Cc3cnc(C4CCCCO4)nc3)CC2)cc1 (stereo unspecified)	13.92%
CC(NC(=O)NCCn1ccnc1)c1ccc2c(c1)OCCCO2 (stereo unspecified)	9.859%
COC(=O)NCC(=O)NC1(C)CCc2ccccc2C1 (stereo unspecified)	14.85%
CCS(=O)(=O)NCC1Cn2nnc(-c3ccccc3)c2CO1 (stereo unspecified)	19.23%
O=C(NCc1cccc(C(F)(F)F)c1)C(c1cccnc1)N1CCCC1 (stereo unspecified)	17.01%
CC(C)(CC(=O)Nc1cccc(Oc2ccccn2)c1)C(=O)O	5.305%
CCc1cc(CNC(=O)C2CCC(=O)N(Cc3ccccc3F)C2)on1 (stereo unspecified)	13.07%
O=C(CCNS(=O)(=O)c1cccnc1)N1CCCCC1	8.707%
Cn1cnnc1C1CCN(C(=O)COCc2ccccc2Cl)CC1	5.426%
CC(C)OCCSCCn1nc2ccccn2c1=O	13.4%
CN(C)C(C(=O)N1CCC(N2CCSCC2)CC1)c1ccccc1F (stereo unspecified)	5.31%
NCc1n[nH]c(-c2ccc(F)cc2)n1	3.597%
O=C(Cn1cc(Cl)cn1)Nc1ccc2c(c1)OCO2	8.681%
COCCN1C[C@@H](c2ccccc2)[C@@]2(CCN(CC(=O)N(C)C)C2=O)C1	5.042%
COc1ccc(C2(NC(=O)CCn3cncn3)CCCCC2)cc1	18.15%
O=C(CNCCn1cccn1)NCC1(c2ccccc2)CCOCC1	23.2%
COc1cccc(CCN2C[C@H]3CCNCC[C@H]3S2(=O)=O)c1	7.958%
COC(=O)C(NC(=O)C1CCCC1)c1cc(F)ccc1F (stereo unspecified)	23.3%
COCc1nc(C(=O)NS(=O)(=O)c2c(C)c(C)cc(C)c2C)cs1	14.71%
Cc1cccc(CNC2CCCc3c2cnn3Cc2ccccc2)c1 (stereo unspecified)	20.55%
CN(C)c1cccc(C2CCCN2S(N)(=O)=O)c1 (stereo unspecified)	13.83%
c1sc(C2CCCCC2)nc1CN1CCn2c(nnc2C2CC2)C1	10.89%
CC(CCc1ccccc1)N1CCC(C(=O)Nc2ccccn2)CC1 (stereo unspecified)	6.414%
Cc1nn(C)cc1-c1ccnc(NCCN)n1	11.54%
Cc1c(F)cc(C(=O)O)cc1S(=O)(=O)Nc1ccc2c(c1)OCCO2	11.66%
CC1CN(C(=O)c2cc(=O)[nH]c3ccc(F)cc23)CCO1 (stereo unspecified)	8.865%
CCC[C@H]1CN(c2nccc(OC)n2)C[C@@H]1NS(=O)(=O)N(C)C	6.164%
Cc1nc(C(=O)N[C@H]2COC[C@@H]2N2CCCCC2)cs1	8.889%
Cn1ccc(-c2cc(C(=O)N3CCC(O)CC3)c3ccccn23)n1	0%
CCn1cc(CN2CCCN(C(=O)c3ccccc3C)CC2)cn1	10.5%
CCn1ncc2c1C(COC)N(C(=O)c1ccsc1)CC2 (stereo unspecified)	11.89%
CC/N=c1\nc(NCC)nc2n1C(O)(Nc1cccc(C)c1C)CS2 (stereo unspecified)	7.859%
Fc1ccc2[nH]c(C3CCCN3CCCn3cccn3)nc2c1 (stereo unspecified)	8.934%
Cn1ncc2c(=O)[nH]c(CN3CCCc4cc(F)ccc43)nc21	13.24%
CCOc1ccc(CN(C)C(=O)NC(C)c2nncn2C)cc1 (stereo unspecified)	6.195%
O=C(c1ccno1)N1CCn2cc(CN3CCCCC3)nc2C1	4.478%
COc1ccc(-c2nc(CN3CCc4c(ncn4C)C3)cs2)cc1	15.95%
CC(=O)N(Cc1ncc(C(C)C)o1)C1CCN(Cc2cc(C)no2)C1 (stereo unspecified)	9.206%
NCCn1nc(C2CCN(Cc3ccc(Cl)c(Cl)c3)C2)c2nccnc21 (stereo unspecified)	9.247%
CC(C)CC(O)C1CCN(C(=O)c2ccc(C(C)C)[nH]c2=O)CC1 (stereo unspecified)	5.279%
CS(=O)(=O)N1CCO[C@@H]2CCN(C(=O)c3cccs3)CC[C@H]21	16.67%
CSCC(C)(O)CNS(=O)(=O)c1ccc(Br)cc1 (stereo unspecified)	0.8475%
N#CC1(NC(=O)CNCCn2cccn2)CCCCC1	6.643%
CC(=O)c1c(C)cc(C)c(CS(=O)(=O)c2nccn2C)c1C	16.03%
CC(C)(C)c1c[nH]c([C@@H]2COCCN2C2CCCCC2)n1	13.22%
O=C1NC(c2ccccc2)=N[C@@]12CC[C@@H]1CN(Cc3cccnc3)C[C@@H]12	10.1%
CC(c1ccncc1)N1Cc2nc(N(C)C)ncc2C1=O (stereo unspecified)	-12.66%
Cc1cccc(Oc2ccccc2CNC(=O)C2CCNC(=O)C2)c1 (stereo unspecified)	20.34%

Once more, the final 4:

- CC(C)(C)c1c[nH]c([C@@H]2COCCN2C2CCCCC2)n1 | 13.22%
- O=C1NC(c2ccccc2)=N[C@@]12CC[C@@H]1CN(Cc3cccnc3)C[C@@H]12 | 10.1%
- CC(c1ccncc1)N1Cc2nc(N(C)C)ncc2C1=O (stereo unspecified) | -12.66%
- Cc1cccc(Oc2ccccc2CNC(=O)C2CCNC(=O)C2)c1 (stereo unspecified) | 20.34%